Some entries share one result that the patent states for a list of compounds.
System: mouse plasma
Test: In vitro activated partial thromboplastin time (aPTT) dose-response in mouse plasma
Assay type: biochemical
Details: at concentrations above about 12 μg/mL

CC1CNc2c(cccc2S(=O)(=O)N[C@@H](CCCNC(=N)N)C(=O)N2CC[C@@H](C)C[C@@H]2C(=O)O)C1 (stereo partly shown) [argatroban]
AAPT (clotting time): greater than 200 s

From US20230416341A1, “IMPROVED THROMBIN INHIBITORS FOR TREATMENT OF THROMBOEMBOLIC CONDITIONS” (priority 2020, published 2023)
